Test results published in US20150125516.
Results from cells or extracts need not show a direct contact. A negative result means that nothing was seen under these conditions. For some assays here: Weaker means in comparison with the reference protein, sequence or condition of that experiment. The exact form of at least one protein or probe is not confirmed.

Target: transferrin receptor (TfR, CD71), native on human cells (Homo sapiens) (UniProt P02786)
Test: flow cytometry
Conditions: 2'-F pyrimidines; 3' idT (printed as terminal t); 5' thiol; control aptamer, human cell lines; protein on the cell surface; label: AF488

Sequence	binding result
GGCGUAGUGAUUAUGAAUCGUGUGCUAAUACACGCC [cntrl.36 (C36)]	no binding

Same assay, conditions: 2'-F pyrimidines; Jurkat cells, no staining; protein on the cell surface; label: AF488 primer hybridized

Sequence	binding result
GGGAGGUGAAUGGUUCUACGAUAGGGUGAAAUUGCGAGCGUUGCCCAACUUUAUAAGUUGGUGAAUAGCCAUUACAUGCGAGAUGACCACGUAAUUGAAUUAAAUGCCCGCCAUGACCAG [round 5 non-binding clone (SEQ 37)]	no binding
GGGAGGUGAAUGGUUCUACGAUCCGCGAAACUUAAAAAAAACGACAAACGCGUGAGCCGGGCAAGGUAGGUAUUUUACAUGCGAGAUGACCACGUAAUUGAAUUAAAUGCCCGCCAUGACCAG [round 5 non-binding clone (SEQ 35)]	no binding
GGGAGGUGAAUGGUUCUACGAUACGCAUGGCAGGAAGCAUGUUAUCCCCUAAGAAUCCGCAAUCGCUCGUAAUUACAUGCGAGAUGACCACGUAAUUGAAUUAAAUGCCCGCCAUGACCAG [round 5 non-binding clone (SEQ 32)]	no binding
GGGAGGUGAAUGGUUCUACGAUACAAGUAUCGGUUUUACAAUACAGACGUACAGUGCGAUAGCCAAGCGGAAUUACAUGCGAGAUGACCACGUAAUUGAAUUAAAUGCCCGCCAUGACCAG [round 5 non-binding clone (SEQ 38)]	no binding
GGGAGGUGAAUGGUUCUACGAUUUUGUGACCUGGUCAGGGAGUUGAAGGGUCGCUCUUUUGAAAAGCCUUGGUUACAUGCGAGAUGACCACGUAAUUGAAUUAAAUGCCCGCCAUGACCAG [round 5 non-binding clone (SEQ 34)]	no binding
GGGAGGUGAAUGGUUCUACGAUCAGAUGACAAAGCGCAUCAGAAGAAUAAAGUGAGAUAAAGUGUGAGAGGGUUACAUGCGAGAUGACCACGUAAUUGAAUUAAAUGCCCGCCAUGACCAG [round 5 non-binding clone (SEQ 33)]	no binding
GGGAGGUGAAUGGUUCUACGAUAGUAGCUUGAAAUCAGAAAACCGACGAAACAAAAAAUAUGAUUUAGCAAGGAUGACCACGUAAUUGUUACAUGCGAGAUGACCACGUAAUUGAAUUAAAUGCCCGCCAUGACCAG [round 5 non-binding clone (SEQ 36)]	no binding

Same assay, conditions: 2'-F pyrimidines; Jurkat cells; full activity retained in 25 uM diferric transferrin; protein on the cell surface; label: AF488

Sequence	binding result
GGGAGGUGAAUGGUUCUACGAUAAACGGUUAAUGACCAGCUUAUGGCUGGCAGUUCCUAUAGCACCAACUACAUGCGAGAUGACCACGUAAUG [clone 1036]	binds

Same assay, conditions: 2'-F pyrimidines; Jurkat cells; protein on the cell surface; label: AF488 primer hybridized to 3' constant region

Sequence	binding result
GGGAGGUGAAUGGUUCUACGAUCAUUACGGCUACCCCGUGUAACGUCAGCCAAAGUAGACCAAAAGUCAGUUACAUGCGAGAUGACCACGU [clone c11]	binds

Same assay, conditions: 2'-F pyrimidines; Jurkat cells; total loss of activity; SEQ assigned from described change; protein on the cell surface; label: AF488 primer hybridized to 3' constant region; variant of c2 full length

Sequence	binding result
GGGAGCAUCUCACAGAUCAAUCCAAGGGGAAAUCCCUUACAUGCGAGAUGGAAUUAAAUGCCCGCCAUGACCAG [c2 min.5 (C-rich bulge removed)]	no binding
GGGAGCAUCUCACAGAUCAAUCCAAGGGACCUACUCCCUUACAUGCGAGAUGGAAUUAAAUGCCCGCCAUGACCAG [c2 min.4 (C-rich bulge converted to loop)]	no binding
GGGAAGGGACCUCGUUAAAGGACGACUCCCUUACAGAAUUAAAUGCCCGCCAUGACCAG [c2 min.3 (5'-nonamer deleted)]	no binding

Same assay, conditions: 2'-F pyrimidines; full activity retained; SEQ assigned from described change; protein on the cell surface; label: AF488 primer hybridized to 3' constant region; variant of c2 full length

Sequence	binding result
GGGGACAGAUCAAUUCCGGCUACCCCGUGUAACGUCUAGCCACAUGUCCCCGAAUUAAAUGCCCGCCAUGACCAG [c2 min.9 (c11 stem loop on c2 bulge)]	binds

Target: transferrin receptor (TfR, CD71), native on human cells (Homo sapiens) (UniProt P02786)
Test: binding assay
Conditions: 2'-F pyrimidines; activity at transferrin receptor; listing SEQ 56 has an ambiguous base; protein on the cell surface

Sequence	binding result
UGGUUCUACGAUAAACGGUUAAUGACCAGCUUAUGGCUGGCAGUUCCU [R10-36]	binds

Same assay, conditions: 2'-F pyrimidines; activity at transferrin receptor; protein on the cell surface

Sequence	binding result
GGGUUCUACGAUAAACGGUUAAUGACCAGCUUAUGACUGGCAGUUCCC [Dv3R4-12]	binds more weakly
GGGUUCUACGACAAACGGUUAAUGAUCAGCUUAUGGCUGGCAGUUCCC [Dv3R4-20]	binds more weakly
UGGUUCUACGAUAAACGGUUAAUGAUCAGCUUAUGGCUGGCAGUUCCU [Waz-like (R10)]	binds
GGGUUUUACGAUAAACGGUUAAUGAUCAGCUUAAGACUGGCAAUUCCC [Dv3R4-22]	binds

Same assay, conditions: 2'-F pyrimidines; relative activity at the transferrin receptor; protein on the cell surface; variant of 36i

Sequence	binding result
GGGUACGACAAACGGUCAAUGACCAGCUUAUGGCUGGCACCC [Waz4 (Table I minimized variant)]	no binding
GGGUACGAUAAACGGUUAAGGACCAGCUUAUGGCUGGCCCCC [Waz3]	no binding
GGGAACUACGAUAAACGGUUAAUGACCAGCUUAUGGCUGGCAGUUCCC [Waz1]	no binding
GGGUACGAUAAACGGUUAAUGACCAGCUUAUGGCUGGCACCC [Waz2]	no binding

Same assay, conditions: 2'-F pyrimidines; relative activity at the transferrin receptor; protein on the cell surface; variant of clone 1036

Sequence	binding result
GGGUGAAUCAUAAACGGUUAAUGACCAGCUUAUGGCUGGCAGUUCCUACAGCACCC [36g]	no binding
GGGUGAAUGGUUCUACGAUAAACGGGUUAAUGACCAGCUUAUGGCUGGCAGUUCCCUAUAGCACCC [36e]	no binding
GGGUUCUACGAUAAACGGUUAAUGACCAGCUUAUGGCUGGCAGUUCCC [36i]	binds
GGGUGAAUGGUUCUACGAUAAACGGUUAAUGACCGAAAGGCAGUUCCUAUAGCACCC [36f]	no binding
GGGUUAAUGACCAGCUUAUGGCUGGCAGUUCCC [36d]	binds more weakly
GGGUGAAUGGUUCUACGAUAAACGGCUUAAUAGUUGCCUAUAGCACCC [36h]	no binding
GGGUGAAUGGUUCUACGAUAAACGGUUAAUGACCAGCUUAUGGCUGGCAGUUCCUAUAGCACCC [36a]	binds
GGGAGUUCUAGUUAAUGACCAGCUUAUGGCUGGCAGUUCCUCCC [36c]	no binding
GGGAGUUCUACGAUAAACGGUUAAUGACCAGCUUAUGGCUGGCAGUUCCUCCC [36b]	binds more weakly
